# According to paper PMC4585983:
# Amino acid sequences for entries named in this document (tags omitted).
# UniProt Q04207: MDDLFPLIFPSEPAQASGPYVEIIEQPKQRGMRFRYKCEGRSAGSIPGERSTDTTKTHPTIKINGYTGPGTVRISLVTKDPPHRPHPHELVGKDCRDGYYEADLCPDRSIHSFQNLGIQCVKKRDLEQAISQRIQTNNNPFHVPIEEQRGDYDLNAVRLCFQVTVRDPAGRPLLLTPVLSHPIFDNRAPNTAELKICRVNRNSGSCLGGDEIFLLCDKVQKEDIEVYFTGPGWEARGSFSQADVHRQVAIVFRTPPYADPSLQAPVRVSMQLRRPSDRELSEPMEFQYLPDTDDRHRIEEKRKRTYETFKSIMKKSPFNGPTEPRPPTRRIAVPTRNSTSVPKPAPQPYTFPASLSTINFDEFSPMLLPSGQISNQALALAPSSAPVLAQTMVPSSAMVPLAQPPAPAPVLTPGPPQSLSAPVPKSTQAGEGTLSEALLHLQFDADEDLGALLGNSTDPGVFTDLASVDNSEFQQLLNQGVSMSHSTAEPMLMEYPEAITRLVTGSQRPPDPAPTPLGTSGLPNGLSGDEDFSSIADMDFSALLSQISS
# No constants are given. Whether binding was seen depends on the method and setting. Binding seen in cells or lysates may run through a third protein. Some entries that bind do so weakly or less than the wild type.
# T1: Activating transcription factor 3 (mouse (endogenous in RAW 264.7)) (UniProt Q60765)
# T1 sequence: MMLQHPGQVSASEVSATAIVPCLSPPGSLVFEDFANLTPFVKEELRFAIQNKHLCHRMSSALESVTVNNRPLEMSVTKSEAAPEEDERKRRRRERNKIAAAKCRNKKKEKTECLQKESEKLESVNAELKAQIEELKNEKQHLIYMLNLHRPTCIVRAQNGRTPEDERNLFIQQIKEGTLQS
# Assays:
# [1] = biological target: T1, Activating transcription factor 3 (mouse (endogenous in RAW 264.7)); assay: co-IP; anti-ATF3 antibody on agarose beads; RAW 264.7 cells treated with 1 μg/mL LPS for the indicated times; whole-cell lysates; Western blot
# [2] = biological target: p65 subunit of nuclear factor κB (NF-κB) (mouse (endogenous in RAW 264.7)) (UniProt Q04207); assay: co-IP; anti-p65 antibody on agarose beads; RAW 264.7 cells treated with 1 μg/mL LPS for the indicated times (also cells with scrambled siRNA); whole-cell lysates; Western blot
binding [1],binding [2],Molecule
binds,–,p65 subunit of nuclear factor κB (NF-κB) (from UniProt Q04207 1-549)
–,binds,"Activating transcription factor 3 (protein, UniProt Q60765 1-181) MMLQHPGQVSASEVSATAIVPCLSPPGSLVFEDFANLTPFVKEELRFAIQNKHLCHRMSSALESVTVNNRPLEMSVTKSEAAPEEDERKRRRRERNKIAAAKCRNKKKEKTECLQKESEKLESVNAELKAQIEELKNEKQHLIYMLNLHRPTCIVRAQNGRTPEDERNLFIQQIKEGTLQS"
